Measurements reported in article doi:10.1101/2020.11.16.378398.
No constants are given. Whether binding was seen depends on the method and setting. In cells and extracts the contact can be indirect. Some entries that bind do so weakly or less than the wild type. Tags and fused reporters may be left off the sequences shown.

How the values were obtained:
Assay in all cases: co-IP
[1] = molecular target: T1, HA-tagged RNF12 WT (1-600) (mouse) (UniProt Q9WTV7)
T1 sequence: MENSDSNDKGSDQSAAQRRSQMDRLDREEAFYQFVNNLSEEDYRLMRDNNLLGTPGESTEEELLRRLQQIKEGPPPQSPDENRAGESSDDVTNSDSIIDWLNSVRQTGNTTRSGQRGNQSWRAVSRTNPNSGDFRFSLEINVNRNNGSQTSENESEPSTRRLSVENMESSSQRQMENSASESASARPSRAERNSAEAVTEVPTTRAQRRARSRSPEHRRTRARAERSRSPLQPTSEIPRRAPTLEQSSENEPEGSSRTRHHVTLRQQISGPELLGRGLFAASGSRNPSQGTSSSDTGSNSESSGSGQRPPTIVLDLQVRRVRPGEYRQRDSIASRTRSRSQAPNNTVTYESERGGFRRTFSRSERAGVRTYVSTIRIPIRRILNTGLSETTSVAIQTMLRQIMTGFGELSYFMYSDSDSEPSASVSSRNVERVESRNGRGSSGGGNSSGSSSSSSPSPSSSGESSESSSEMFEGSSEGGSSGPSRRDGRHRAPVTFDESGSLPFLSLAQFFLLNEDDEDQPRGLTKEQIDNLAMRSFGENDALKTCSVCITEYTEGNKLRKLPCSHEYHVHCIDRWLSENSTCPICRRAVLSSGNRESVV

[2] = molecular target: T2, HA-tagged RNF12 Δ1-206 (ΔN) (mouse) (UniProt Q9WTV7)
T2 sequence: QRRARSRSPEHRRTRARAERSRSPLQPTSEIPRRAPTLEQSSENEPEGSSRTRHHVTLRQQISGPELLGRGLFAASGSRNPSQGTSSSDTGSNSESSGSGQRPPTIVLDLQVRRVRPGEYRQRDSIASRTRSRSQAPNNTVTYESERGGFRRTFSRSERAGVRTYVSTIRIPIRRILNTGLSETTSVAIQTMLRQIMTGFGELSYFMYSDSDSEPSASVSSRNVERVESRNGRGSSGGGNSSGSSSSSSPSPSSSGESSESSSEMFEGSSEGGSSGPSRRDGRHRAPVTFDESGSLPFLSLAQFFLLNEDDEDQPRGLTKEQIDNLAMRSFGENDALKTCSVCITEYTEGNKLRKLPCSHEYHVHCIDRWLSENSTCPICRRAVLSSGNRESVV

[3] = molecular target: T3, HA-tagged RNF12 Δ326-423 (ΔBR) (mouse) (UniProt Q9WTV7)
T3 sequence: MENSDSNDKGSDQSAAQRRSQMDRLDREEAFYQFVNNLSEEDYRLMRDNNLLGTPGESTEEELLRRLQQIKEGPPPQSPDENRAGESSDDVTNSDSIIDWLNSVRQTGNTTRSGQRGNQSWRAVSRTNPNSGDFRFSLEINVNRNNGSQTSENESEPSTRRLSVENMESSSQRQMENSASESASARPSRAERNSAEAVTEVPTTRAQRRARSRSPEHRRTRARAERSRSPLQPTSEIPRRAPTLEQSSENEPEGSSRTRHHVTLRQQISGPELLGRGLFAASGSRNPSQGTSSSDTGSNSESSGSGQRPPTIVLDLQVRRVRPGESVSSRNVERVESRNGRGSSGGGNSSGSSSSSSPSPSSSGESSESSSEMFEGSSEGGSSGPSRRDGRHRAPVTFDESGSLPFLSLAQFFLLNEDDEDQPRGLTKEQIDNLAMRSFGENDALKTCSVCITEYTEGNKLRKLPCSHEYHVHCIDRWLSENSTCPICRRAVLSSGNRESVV

[4] = molecular target: T4, HA-tagged RNF12 Δ502-513 (ΔNES) (mouse) (UniProt Q9WTV7)
T4 sequence: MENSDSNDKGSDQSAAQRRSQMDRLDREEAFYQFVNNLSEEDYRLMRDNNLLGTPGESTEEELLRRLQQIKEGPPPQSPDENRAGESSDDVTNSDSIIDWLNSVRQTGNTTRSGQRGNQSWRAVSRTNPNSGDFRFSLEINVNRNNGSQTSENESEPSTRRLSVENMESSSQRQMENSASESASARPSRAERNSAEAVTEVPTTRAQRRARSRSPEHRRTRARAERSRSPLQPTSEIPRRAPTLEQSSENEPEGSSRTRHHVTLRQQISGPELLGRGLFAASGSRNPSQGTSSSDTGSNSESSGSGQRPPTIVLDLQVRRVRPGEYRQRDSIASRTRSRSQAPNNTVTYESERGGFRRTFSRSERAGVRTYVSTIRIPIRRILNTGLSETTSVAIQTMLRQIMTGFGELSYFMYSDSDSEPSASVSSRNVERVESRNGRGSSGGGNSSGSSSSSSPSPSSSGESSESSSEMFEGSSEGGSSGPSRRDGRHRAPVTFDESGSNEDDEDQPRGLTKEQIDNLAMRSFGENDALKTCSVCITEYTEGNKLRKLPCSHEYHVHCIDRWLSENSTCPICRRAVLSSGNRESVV

[5] = molecular target: T5, HA-tagged RNF12 Δ546-587 (ΔRING) (mouse) (UniProt Q9WTV7)
T5 sequence: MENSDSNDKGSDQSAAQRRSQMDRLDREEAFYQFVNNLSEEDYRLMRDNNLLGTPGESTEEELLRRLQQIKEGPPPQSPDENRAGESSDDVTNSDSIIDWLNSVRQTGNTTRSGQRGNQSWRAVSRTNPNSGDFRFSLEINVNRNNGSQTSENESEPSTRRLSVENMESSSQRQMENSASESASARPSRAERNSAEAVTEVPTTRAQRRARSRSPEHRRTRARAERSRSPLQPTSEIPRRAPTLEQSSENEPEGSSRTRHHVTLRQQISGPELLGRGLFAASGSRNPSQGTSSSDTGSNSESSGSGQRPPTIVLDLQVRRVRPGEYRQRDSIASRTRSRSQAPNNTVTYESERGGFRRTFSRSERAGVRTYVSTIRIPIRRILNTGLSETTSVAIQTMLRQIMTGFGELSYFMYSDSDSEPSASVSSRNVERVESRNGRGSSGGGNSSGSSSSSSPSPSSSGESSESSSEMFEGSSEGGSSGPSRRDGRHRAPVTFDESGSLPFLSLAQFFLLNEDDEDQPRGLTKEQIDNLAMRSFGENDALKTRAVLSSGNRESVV

B1: FLAG-tagged human USP26 (enzyme, UniProt Q9BXU7 1-913)
chain: MAALFLRGFVQIGNCKTGISKSKEAFIEAVERKKKDRLVLYFKSGKYSTFRLSDNIQNVVLKSYRGNQNHLHLTLQNNNGLFIEGLSSTDAEQLKIFLDRVHQNEVQPPVRPGKGGSVFSSTTQKEINKTSFHKVDEKSSSKSFEIAKGSGTGVLQRMPLLTSKLTLTCGELSENQHKKRKRMLSSSSEMNEEFLKENNSVEYKKSKADCSRCVSYNREKQLKLKELEENKKLECESSCIMNATGNPYLDDIGLLQALTEKMVLVFLLQQGYSDGYTKWDKLKLFFELFPEKICHGLPNLGNTCYMNAVLQSLLSIPSFADDLLNQSFPWGKIPLNALTMCLARLLFFKDTYNIEIKEMLLLNLKKAISAAAEIFHGNAQNDAHEFLAHCLDQLKDNMEKLNTIWKPKSEFGEDNFPKQVFADDPDTSGFSCPVITNFELELLHSIACKACGQVILKTELNNYLSINLPQRIKAHPSSIQSTFDLFFGAEELEYKCAKCEHKTSVGVHSFSRLPRILIVHLKRYSLNEFCALKKNDQEVIISKYLKVSSHCNEGTRPPLPLSEDGEITDFQLLKVIRKMTSGNISVSWPATKESKDILAPHIGSDKESEQKKGQTVFKGASRRQQQKYLGKNSKPNELESVYSGDRAFIEKEPLAHLMTYLEDTSLCQFHKAGGKPASSPGTPLSKVDFQTVPENPKRKKYVKTSKFVAFDRIINPTKDLYEDKNIRIPERFQKVSEQTQQCDGMRICEQAPQQALPQSFPKPGTQGHTKNLLRPTKLNLQKSNRNSLLALGSNKNPRNKDILDKIKSKAKETKRNDDKGDHTYRLISVVSHLGKTLKSGHYICDAYDFEKQIWFTYDDMRVLGIQEAQMQEDRRCTGYIFFYMHNEIFEEMLKREENAQLNSKEVEETLQKE
**Q.** Which results are given for B1?
**A.** binding [1]: binds; binding [2]: binds; binding [3]: no binding; binding [4]: binds; binding [5]: binds

B2: HA-tagged RNF12 WT (1-600) (protein, UniProt Q9WTV7 1-600)
chain: MENSDSNDKGSDQSAAQRRSQMDRLDREEAFYQFVNNLSEEDYRLMRDNNLLGTPGESTEEELLRRLQQIKEGPPPQSPDENRAGESSDDVTNSDSIIDWLNSVRQTGNTTRSGQRGNQSWRAVSRTNPNSGDFRFSLEINVNRNNGSQTSENESEPSTRRLSVENMESSSQRQMENSASESASARPSRAERNSAEAVTEVPTTRAQRRARSRSPEHRRTRARAERSRSPLQPTSEIPRRAPTLEQSSENEPEGSSRTRHHVTLRQQISGPELLGRGLFAASGSRNPSQGTSSSDTGSNSESSGSGQRPPTIVLDLQVRRVRPGEYRQRDSIASRTRSRSQAPNNTVTYESERGGFRRTFSRSERAGVRTYVSTIRIPIRRILNTGLSETTSVAIQTMLRQIMTGFGELSYFMYSDSDSEPSASVSSRNVERVESRNGRGSSGGGNSSGSSSSSSPSPSSSGESSESSSEMFEGSSEGGSSGPSRRDGRHRAPVTFDESGSLPFLSLAQFFLLNEDDEDQPRGLTKEQIDNLAMRSFGENDALKTCSVCITEYTEGNKLRKLPCSHEYHVHCIDRWLSENSTCPICRRAVLSSGNRESVV
**Q.** Which binding [1] does the source give for B2 here?
**A.** Its binding is “binds”.

B3: HA-tagged RNF12 Δ326-423 (ΔBR) (protein, UniProt Q9WTV7)
chain: MENSDSNDKGSDQSAAQRRSQMDRLDREEAFYQFVNNLSEEDYRLMRDNNLLGTPGESTEEELLRRLQQIKEGPPPQSPDENRAGESSDDVTNSDSIIDWLNSVRQTGNTTRSGQRGNQSWRAVSRTNPNSGDFRFSLEINVNRNNGSQTSENESEPSTRRLSVENMESSSQRQMENSASESASARPSRAERNSAEAVTEVPTTRAQRRARSRSPEHRRTRARAERSRSPLQPTSEIPRRAPTLEQSSENEPEGSSRTRHHVTLRQQISGPELLGRGLFAASGSRNPSQGTSSSDTGSNSESSGSGQRPPTIVLDLQVRRVRPGESVSSRNVERVESRNGRGSSGGGNSSGSSSSSSPSPSSSGESSESSSEMFEGSSEGGSSGPSRRDGRHRAPVTFDESGSLPFLSLAQFFLLNEDDEDQPRGLTKEQIDNLAMRSFGENDALKTCSVCITEYTEGNKLRKLPCSHEYHVHCIDRWLSENSTCPICRRAVLSSGNRESVV
**Q.** B3 was tested. Which binding [3] did it give?
**A.** The binding was “no binding”.
